PubChem BioAssay AID1053208 – Peter MacCallum Cancer Centre – 2014
The whole screen tested about 17,000 reagents; this is a part drawn at random. 788 of them (4.7%) count as active. 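Calls rest on z-score classes alone; an extra cut-off of viability at most 70% of control was not applied to them.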 Unmarked entries are inactive. Further read-outs or replicates are left out here.

- Screen: 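Synthetic lethal interactions between gene loss and doxorubicin in osteosarcoma cells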 (primary screen)
- Cell system: mouse osteosarcoma cells, early-passage culture from an engineered mouse model of fibroblastic bone tumour
- Reagent: siRNA pool against mouse genes, 40 nM
- Timing: about 120 h (48 h before drug, then 72 h with drug)
- Treatment: doxorubicin 100 nM for 72 h, roughly 30-40% inhibitory dose
- Read-out: 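Viability read as ATP luminescence after 72 h of 100 nM doxorubicin or none, duplicate wells averaged, scaled to non-targeting siRNA, then expressed as robust z-scores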
- Scale: viability z-score with doxorubicin: higher = more viable cells under doxorubicin; viability z-score without drug: higher = more viable cells with knock-down alone; z-score of drug to no-drug ratio: higher = less drug sensitisation by knock-down
- Rule for the call: 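Called active if knock-down leaves viability unchanged without drug (z within -2 to 2) but lowers it with doxorubicin (z at or under -2)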

no.	gene	combined z-score class	viability z-score with doxorubicin	viability z-score without drug	z-score of drug to no-drug ratio
1	Wbp1l	low cell count with doxorubicin only (active)	-2.25	1.18	-2.81
2	Gemin2	no change with or without drug	-0.22	-1.18	0.79
3	Rdh5	no change with or without drug	-0.9	-0.84	-0.22
4	Or2ag18	no change with or without drug	0	-0.17	0.22
5	Zbtb6	no change with or without drug	0	0.84	-0.45
6	Nbl1	no change with or without drug	1.8	-0.51	2.47
7	Or2h1	no change with or without drug	-0.11	-0.67	0.45
8	Ribc1	no change with or without drug	-0.22	0.84	-0.67
9	9530002B09Rik	no change with or without drug	1.12	1.52	0.22
10	Hnrnph2	no change with or without drug	0	-0.17	0.22
11	Mnmip1	no change with or without drug	-1.12	-0.84	-0.56
12	Gm9735	high cell count with and without drug	2.02	2.19	0.67
13	Mzf1	high cell count with and without drug	2.14	4.55	-0.56
14	Dlg2	no change with or without drug	-0.22	-0.34	0.11
15	Nek6	no change with or without drug	-0.34	-1.18	0.56
16	Or3a4	no change with or without drug	0.34	0.51	0.11
17	Eln	no change with or without drug	0	0	0.11
18	Catsper4	no change with or without drug	-0.22	-0.17	0
19	Padi4	no change with or without drug	0.67	0.84	0.22
20	Hrob	no change with or without drug	0.45	0.17	0.45
21	She	no change with or without drug	-0.79	0.17	-0.79
22	Rora	no change with or without drug	0.45	0.51	0.22
23	Or52ae9	no change with or without drug	-1.57	-1.18	-0.79
24	Tent4b	no change with or without drug	0.67	-0.51	1.24
25	Acad12	no change with or without drug	-0.45	-0.17	-0.22
26	Mrpl38	low cell count with doxorubicin only (active)	-3.04	-0.84	-2.7
27	Afg3l1	no change with or without drug	-0.34	-0.17	-0.11
28	Tpm1	no change with or without drug	0.67	0.51	0.45
29	Plek2	no change with or without drug	0	-1.18	1.01
30	Pitpna	no change with or without drug	0.67	0.34	0.56
31	Natd1	no change with or without drug	-0.67	-0.84	0
32	Tmx3	no change with or without drug	-0.11	-1.01	0.67
33	Usp31	no change with or without drug	0.34	0.34	0.22
34	Stx16	no change with or without drug	-1.01	-1.35	0
35	Pcdh8	no change with or without drug	0.22	0.51	0
36	Fastkd3	no change with or without drug	-1.35	-0.17	-1.24
37	Copb1	low cell count with and without drug	-6.97	-6.58	-4.61
38	Vmn1r87	no change with or without drug	0.67	0.51	0.45
39	Gabpb1	no change with or without drug	-1.57	-0.17	-1.46
40	Or4a66	no change with or without drug	0	0.84	-0.45
41	Fhad1	no change with or without drug	-0.67	1.52	-1.46
42	Srprb	no change with or without drug	-0.9	0.17	-0.9
43	Ms4a4d	low cell count with and without drug	-2.25	-2.53	-0.67
44	Tmem185b	no change with or without drug	-1.35	-0.17	-1.24
45	Stx12	no change with or without drug	0	-0.67	0.56
46	Abt1	no change with or without drug	1.24	1.01	0.67
47	Rnf133	no change with or without drug	-0.67	0.51	-0.9
48	Dusp4	no change with or without drug	0.67	-1.52	2.02
49	Or52ac1	no change with or without drug	0.56	1.52	-0.34
50	A930012M17	no change with or without drug	0.22	-1.18	1.24

An excerpt taken from the entries so far, for reference:
no.	gene	combined z-score class	viability z-score with doxorubicin	viability z-score without drug	z-score of drug to no-drug ratio
12	Gm9735	high cell count with and without drug	2.02	2.19	0.67
13	Mzf1	high cell count with and without drug	2.14	4.55	-0.56
14	Dlg2	no change with or without drug	-0.22	-0.34	0.11
